For this data set, the target named is ICAM-1 (on cells) (Homo sapiens) (UniProt P05362). In words: binding assay. The following applies: protein on the cell surface.
The mark [1] stands for this setting: 2'-F pyrimidines (all C and U), qPCR cell binding, HNEpC higher than HEK293.

By UniProt entry, the sequences of proteins in these tests, tags left out. Residues count along the entry.
UniProt P05362, 28-532: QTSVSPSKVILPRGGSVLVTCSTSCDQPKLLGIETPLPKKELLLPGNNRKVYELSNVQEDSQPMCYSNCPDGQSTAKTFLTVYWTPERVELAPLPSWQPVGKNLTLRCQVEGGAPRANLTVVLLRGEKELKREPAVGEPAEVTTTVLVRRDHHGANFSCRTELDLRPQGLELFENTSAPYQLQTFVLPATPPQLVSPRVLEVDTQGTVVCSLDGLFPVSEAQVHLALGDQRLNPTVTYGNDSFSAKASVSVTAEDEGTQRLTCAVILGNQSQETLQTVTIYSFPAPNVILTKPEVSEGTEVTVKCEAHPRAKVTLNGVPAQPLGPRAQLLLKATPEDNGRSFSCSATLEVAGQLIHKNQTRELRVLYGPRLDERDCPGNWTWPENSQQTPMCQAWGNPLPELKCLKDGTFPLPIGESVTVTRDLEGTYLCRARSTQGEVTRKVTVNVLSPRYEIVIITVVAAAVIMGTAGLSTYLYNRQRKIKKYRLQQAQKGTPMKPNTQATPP

The record followed here is patent publication US20230287433, “APTAMERS FOR PERSONAL HEALTH CARE APPLICATIONS” (The Procter & Gamble Company, published 2023).

Results from cells or extracts need not show a direct contact.

Turning to “GGGUGCAUCGUUUACGCGUAAAUGGUCCGCUAUUAAAAGAAAAGAAUGAAGUCUCAGCUGCUGCUGAGGAAGGAUAUGAG [Nas.R-5]”, the binding result under setting [1] is reported as “binds”. For “GGGTGCATCGTTTACGCGCAACATAAAAATTTAAAGTGCTCAGTTGTCAATCTATGACTGCTGCTGAGGAAGGATATGAG [Nas.D-4]”, the binding result (HNEpC cells, 500 nM, RH-30 below 500 RFU, label: FAM, single-stranded DNA, variant of Nas.R-4) was “binds”. Turning to “GGGTGCATCGTTTACGCGTAAAAATTAAAGAGATTAAGGTCCTTAAGCAGTTTTGTCCTGCTGCTGAGGAAGGATATGAG [Nas.D-8]”, where the note is “HNEpC cells, lower than truncated 8.1, RH-30 worse, label: FAM, single-stranded DNA, variant of Nas.R-8”, the binding result is on record as “binds”. As to “GGGTGCATCGTTTACGCGTAAATGGTCCGCTATTAAAAGAAAAGAATGAAGTCTCAGCTGCTGCTGAGGAAGGATATGAG [Nas.D-5]”, the binding result (HNEpC cells, 500 nM, RH-30 hardly detectable, label: FAM, single-stranded DNA, variant of Nas.R-5) is “binds”. Take “AGGTCCTCAAGCAGCTTTGTCCTGCTGCTGAGGAAGG [Nas.D-8.1]”: the binding result (HNEpC cells, peaks 0.5 h and 2 h, higher than parent, RH-30 worse, label: FAM, single-stranded DNA, variant of Nas.D-8) is listed as “binds”.

On to “GGGUGCAUCGUUUACGCGUAAAUAAGUAGAUAAAGUGGCAGUUUGUUUUCCUUGGAACUGCUGCUGAGGAAGGAUAUGAG [Nas.R-7]”, for which the binding result under setting [1] is given as “binds”.

With “GGGTGCATCGTTTACGCGCAACATAAAAATTTAAAGTGCTCAGTTGTCAATCTATGACTGCTGCTGAGGAAGGATATGAGAAACAAACAAACGTATGGCGGTCTCCAACAGG / CCTGTTGGAGACCGCCATAC”, the binding result (2'-F pyrimidines in RNA strand, fluorescence microscopy on HNEpC, no fluorescence on HEK293, label: 5' 6-FAM on DNA antisense strand, variant of Nas.R-4) was “binds”.
